The supplement of paper PMC12889115
This is one part of the list. These are raw signals, not scaled to a control.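 In the initial screen, polymyxin B was used at a concentration that permeabilizes Salmonella's outer membrane but not its inner membrane. Maximum growth was set by DMSO wells with or without polymyxin B. Since plates varied, data were ranked per plate, and compounds giving the lowest OD600 advanced as hits.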

Tested on: Salmonella enterica serovar Typhimurium SL1344
Experiment: bacterial growth OD600 after 18 h with compound and polymyxin B; higher = more bacterial growth (less inhibition)
Conditions: 50 µM, Mueller-Hinton broth

| SMILES | bacterial growth OD600 (polymyxin B 1 µg/mL) | bacterial growth OD600 (polymyxin B 0.75 µg/mL) |
| --- | --- | --- |
| CCOC(=O)C1(Cc2ccccc2F)CCCN(C(=O)c2cccnc2)C1 (configuration not stated) | 0.992 |  |
| c1ccc(OCc2noc(-c3ccc(NC4CCSC4)nc3)n2)cc1 (configuration not stated) | 0.563 |  |
| COc1ccc(C(=O)NC2CC2)cc1OC1CCN(Cc2ccccc2F)CC1 | 0.89 |  |
| CC1(C)Cc2c(cnn2-c2ccc(F)cc2)C(NC(=O)CCCN2CCCCC2=O)C1 (configuration not stated) | 0.879 |  |
| Cc1ccc(C)c(OCc2cc(C(=O)N3CCC(N4CCSCC4)CC3)no2)c1 | 1.33 |  |
| COC(=O)[C@@H]1CCCN1C(=O)Cc1ccc(N2CCC(NC[C@H]3CCc4ccccc4O3)CC2)cc1 |  | 0.759 |
| CCOC(=O)CC1COCCN1Cc1nc(-c2cccc(C)c2)oc1C (configuration not stated) | 0.939 |  |
| Cc1ccc(CN(C)CC2(O)CCCN(CC3CCC3)C2=O)o1 (configuration not stated) | 0.891 |  |
| COc1cccc(OCc2nc(C(=O)N(C)CC3Cc4ccccc4O3)co2)c1 (configuration not stated) | 0.777 |  |
| COc1ccc(N2C(=O)CN(C(=O)CSc3ccccn3)CC23CCCC3)cc1 |  | 0.783 |
| COc1cccc(NC(=O)CCC2CCN(S(=O)(=O)c3cccnc3)CC2)c1 | 0.936 |  |
| NC(=O)c1ccc(NCc2cccnc2Oc2cccc(C(F)(F)F)c2)nc1 |  | 0.442 |
| COCCN(Cc1ccc(OC)c(O)c1)CC1CCCN(C2Cc3ccccc3C2)C1 (configuration not stated) | 0.85 |  |
| O=C(NC1CCCN(CCc2ccccc2)C1)C1=CCCC1 (configuration not stated) | 0.859 |  |
| O=C(NC1CCOC1)c1csc2nc(-c3ccc(C(F)(F)F)cc3)cn12 (configuration not stated) | 1.29 |  |
| CN(Cc1nc2ccccc2n1C)C1CCCN(CCc2ccccc2)C1 (configuration not stated) | 0.895 |  |

| SMILES | bacterial growth OD600 (polymyxin B 1 µg/mL) | bacterial growth OD600 (polymyxin B 0.75 µg/mL) |
| --- | --- | --- |
| COc1ccccc1N1CCN(C2CCCN(C(=O)c3cc4ccccc4n3C)C2)CC1 (configuration not stated) | 0.775 |  |
| COc1cc(CNCC(C)C)ccc1OCC(O)CN1CCOCC1 (configuration not stated) | 0.875 |  |
| O=C(CC(c1cccc(O)c1)c1ccccc1Cl)N1CCSCC1 (configuration not stated) | 0.014 |  |
| COc1cc(CN2CCCC(Nc3ccc(F)cc3)C2)ccc1F (configuration not stated) | 0.901 |  |
| C=CC[C@H]1CC(C)=C[C@H](CC=C)N1C(=O)c1ccc(-n2cc(NC(=O)c3cccnc3)cn2)cc1 |  | 0.008 |
| COc1cccc(C(C)N(C)Cc2nc(-c3cccs3)no2)c1 (configuration not stated) | 0.787 |  |
| O=C(CCOc1ccccc1)NCc1cccnc1N1CCCC(O)C1 (configuration not stated) |  | 0.756 |
| Cc1noc(C)c1CCCNC(=O)c1ccc(N2CCN3CCCC3C2)nc1 (configuration not stated) | 1.08 |  |
| Cc1cc(C)n(CCC(=O)NC2CC(=O)N(Cc3ccc(F)cc3)C2)n1 (configuration not stated) | 0.898 |  |
| COc1ccc(NC2CCCN(C(=O)c3ccc(C(F)(F)F)cc3)C2)cc1 (configuration not stated) | 1 |  |
| O=C(C1CCOCC1)N1CCCC(CNC(=O)C2(c3ccc(Cl)cc3)CC2)C1 (configuration not stated) | 0.98 |  |
| COC(=O)C1CCCCN1C(=O)c1cc(COc2ccc(C(C)=O)cc2)on1 (configuration not stated) | 0.873 |  |
| O=C(C1=CCCC1)N1CCCC(N2CCN(c3ccc(F)cc3)CC2)C1 (configuration not stated) | 0.861 |  |
| CCN1CCN(C2(C(=O)NCCCn3ccnc3C)Cc3ccccc3C2)CC1 |  | 0.935 |
| O=C(c1ccc(Oc2ccccc2)cc1)C1CCCN(C(=O)CCN2CCCCC2=O)C1 (configuration not stated) | 0.021 |  |
| O=C(NCC1CCCN(Cc2cccc3c2OCO3)C1)c1cc2ccccc2[nH]1 (configuration not stated) |  | 0.712 |

Reformatted bar-delimited: 2 of the compounds above.
SMILES | bacterial growth OD600 (polymyxin B 1 µg/mL) | bacterial growth OD600 (polymyxin B 0.75 µg/mL)
Cc1ccc(CN(C)CC2(O)CCCN(CC3CCC3)C2=O)o1 (configuration not stated) | 0.891 | 
COc1cc(CN2CCCC(Nc3ccc(F)cc3)C2)ccc1F (configuration not stated) | 0.901 | 
